This note sets out measurements from patent US5573925.

Construct, isoform or probe ends are uncertain for at least one entry. For some of these results: Weaker means in comparison with the reference protein, sequence or condition of that experiment.

Data set [1] concerns the target p53LZ346E (Saos-2) (Homo sapiens / Saccharomyces cerevisiae) (UniProt P04637). Description: activity in cells. Particulars: SEAP reporter, protein in cells, only the site is given.
The target of data set [2] is p53TZ334N (Saos-2) (Homo sapiens / Saccharomyces cerevisiae) (UniProt P04637). Kind of data set: activity in cells. Conditions: SEAP reporter, protein in cells, only the site is given.
Data set [3] has as its target p53 wild-type (Saos-2) (Homo sapiens) (UniProt P04637). Description: activity in cells. Conditions: SEAP reporter, 1640 in Exp 3, protein in cells, only the site is given.
Data set [4] deals with p53LZ347 (Homo sapiens / Saccharomyces cerevisiae) (UniProt P04637). Kind of data set: EMSA. Particulars: protein translated in vitro; label: 32P. Background: Mobility shift assays separate free from complexed probe on a gel.
The target of data set [5] is p53TZ323RGN (Homo sapiens / Saccharomyces cerevisiae) (UniProt P04637). Description: EMSA. Conditions: protein translated in vitro; label: 32P.
Data set [6] concerns the target p53LZ346E (Homo sapiens / Saccharomyces cerevisiae) (UniProt P04637). Kind of data set: EMSA. Particulars: protein translated in vitro; label: 32P.
Data set [7] addresses p53 wild-type (Homo sapiens) (UniProt P04637). Kind of data set: EMSA. Particulars: protein translated in vitro, label: 32P.
Data set [8] addresses p53TZ334N (Homo sapiens / Saccharomyces cerevisiae) (UniProt P04637). Description: EMSA. Particulars: protein translated in vitro; label: 32P.
Data set [9] deals with p53LZ335Q (Homo sapiens / Saccharomyces cerevisiae) (UniProt P04637). Kind of data set: EMSA. Conditions: protein translated in vitro; label: 32P.
Data set [10] deals with p53LZ343 (Homo sapiens / Saccharomyces cerevisiae) (UniProt P04637). Kind of data set: EMSA. Conditions: protein translated in vitro; label: 32P.

For “CCCGAACATGTCCCAACATGTTGGGG (double strand) [Ewaf1]”, the activity on this sequence (relative units) is 520 in [1], 1480 in data set [2] and 1990 in data set [3]. For the same sequence, the binding result in data set [4] is “binds”; in data set [5], “binds”; in data set [6], “binds”; in data set [7], “binds more weakly”; in data set [8], “binds”.

In turn, “CCGGGCATGTCCGGGCATGTCCGGGCATGT (double strand) [BC]” came in with an activity on this sequence (relative units) in data set [2] of 2550. Moreover, the binding result in data set [9], in [10], in data set [4], in data set [5], in data set [6] and in data set [8] was “binds” throughout.

As for “TATGGGCATGTCCTATATATATGCGTATATATATGGGCATGTCCTAT (double strand) [BC.S21]”, the binding result in [7] (variant of BC) is listed as “binds”.
